# The list shows a part of the results.
# Tested on: T1, CTL2-GFP (C. trachomatis L2/434/Bu, GFP-expressing)
# T1 construct: L2/434/Bu, GFP-expressing
# Design: species or system HeLa; Intracellular C. trachomatis growth in HeLa cells, bulk GFP fluorescence relative to DMSO
# Details: bulk GFP, single well; 28.5 h, 10 µM; inhibitor
row,Structure (SMILES),% of control remaining [%]
1,O=C(O)CCC(=O)N1CCN(C(=O)c2ccco2)CC1 [CBK286533],146.491
2,CCn1cc(Cl)c(C(=O)NC2CCN(c3cnccn3)CC2)n1 [CBK306922],113.966
3,Cc1ccc(Cl)cc1NC(=O)c1cc([N+](=O)[O-])ccc1NCCN1C(=O)c2ccccc2C1=O [CBK268501],120.37
4,CC(Oc1cccc(C#N)c1)C(=O)N1CCCC1C(=O)NCC(F)(F)F (centres unmarked) [CBK305435],131.894
5,CCCc1ccc(S(=O)(=O)Nc2ccc(C(=O)N3CCN(C)CC3)cc2)cc1 [CBK034547],100
6,O=C(Nc1cccc(Cl)c1Cl)N1CCC(n2c(=O)[nH]c3ccccc32)CC1 [CBK149856],112.337
7,O=[N+]([O-])c1ccc(CSc2nnc(-c3cccs3)n2Cc2ccco2)cc1 [CBK267588],114.79
8,Cc1cc(Oc2ccccc2)nc(Oc2ccc(=O)n(-c3ccccc3)n2)n1 [CBK269843],80.9771
9,Cc1cc(-c2ccc(=O)n(CCNC(=O)C3CCC3)n2)c(C)o1 [CBK284520],81.5477
10,O=c1ccc2cccc(OCCO)c2o1 [CBK149730],148.433
11,O=C(NC(c1ccccc1)c1ccco1)C1CCN(CCc2c[nH]c3ccccc23)CC1 (centres unmarked) [CBK148290],151.018
12,CC(=O)N1CCc2cc(-c3cc4cc(C)ccn4c3)ccc21 [CBK285228],166.321
13,O=C(O)c1cccc(NS(=O)(=O)c2ccc3c(c2)OCCO3)c1 [CBK155697],126.75
14,CC(C)(CO)CNc1cncc(-c2cccc(Cl)c2)n1 [CBK037862],90.6442
15,CCn1c(COc2ccc(Cl)c3cccnc23)nnc1SC [CBK266611],137.561
16,O=C(c1ccc2c(c1)OCO2)N1CCN(C(=O)c2ccc(Cl)cc2F)CC1 [CBK296685],141.94
17,CCn1c(=O)n(CC(=O)N2CCCC2)c2cccnc21 [CBK283904],92.429
18,CCOC(=O)CNS(=O)(=O)c1ccc(-c2ccccc2)cc1 [CBK034435],106.013
19,O=C(O)C(Cc1c[nH]cn1)N1C(=O)C2CC=C(Cl)CC2C1=O (centres unmarked) [CBK286871],116.485
20,C=C(C)CNC(=O)c1ccc(C)nc1N1CCN(C(=O)c2ccco2)CC1 [CBK076401],112.166
21,CCn1c2ccccc2c2cc(NC(=O)C(C)Sc3n[nH]c(=O)n3C3CC3)ccc21 (centres unmarked) [CBK296636],120.69
22,OCCSCc1ccc2nonc2c1 [CBK020617],116.229
23,COC(=O)c1ccccc1NC(=O)CN(C)S(=O)(=O)c1c(C)cc(C)cc1C [CBK266241],112.927
24,COc1ccc(Sc2nc3ccccc3nc2N2CCCC2)cc1OC [CBK093797],102.474
25,CC(C)(C)C1=CC2=NC3(CCC3)[C@@H]3C[C@@H](O)[C@@H](O)[C@@H]3N2O1 [CBK303243],91.0677
26,CCCc1[nH]nc(O)c1Cc1cc(C(F)(F)F)ccc1Cl [CBK075032],121.066

row,Structure (SMILES),% of control remaining [%]
1,Cc1cccc(OCC(=O)NCCCc2ccccc2)c1C [CBK265507],121.586
2,N=C(N)NC(=N)NCCc1c[nH]c2ccccc12 [CBK267706G],104.113
3,CSc1nc(=O)c(CCC(=O)O)n[nH]1 [CBK019689],111.514
4,c1ccc(-c2ccccc2CN2CCC(Oc3nccnc3OCCN3CCOCC3)CC2)cc1 [CBK082924T],100.867
5,Oc1c(Cl)cc(Cl)cc1/C=N/c1ccc(-c2nc3ccc(/N=C/c4cc(Cl)cc(Cl)c4O)cc3[nH]2)cc1 [CBK261660],100
6,Cc1[nH]c2ccccc2c1C(=O)CSc1nncc2ccccc12 [CBK297912],130.621
7,O=C(c1cccc2ncccc12)N1CCN(CC2CCOC2)CC1 (centres unmarked) [CBK305140],128.363
8,CC(C)(C)C1CCC(=NNC(=O)c2ccc(CN3CCOCC3)cc2)CC1 (centres unmarked) [CBK018812],101.705
9,CCCCN(C(=O)c1cc(C)nc2ccccc12)c1ccccc1 [CBK296926],121.502
10,O=C(CC(CC(=O)c1ccc(Cl)cc1)c1ccccc1C(=O)O)c1ccc(Cl)cc1 [CBK265604],123.226
11,Cc1nnc2ncc(-c3ccccc3C(=O)N(C(C)C)C(C)C)cn12 [CBK307393],157.894
12,Cc1nc(C(=N)N)nc2ccccc12 [CBK010368C],62.4913
13,Cc1ccc(/C=C2\SC(=S)N(CC(=O)Nc3cccc(C(=O)O)c3)C2=O)cc1 [CBK263935],117.003
14,CC(=O)c1ccc(C(=O)Nc2sc3c(c2C#N)CCN(C(C)=O)C3)cc1 [CBK304418],137.354
15,Cc1csc(-c2ccc(C(=O)N3CCN(C)CC3)c(N3CCOCC3)n2)c1 [CBK106195],139.321
16,CC(=O)NC(N(C)S(=O)(=O)c1ccc(C)cc1)C(Cl)(Cl)Cl (centres unmarked) [CBK262662],112.915
17,CC(C)(C)c1ccc(OCC(O)CNS(=O)(=O)O)cc1 (centres unmarked) [CBK261169N],120.79
18,CCC(=O)N1CCc2cc(C(O)CN3CCCCC3C)ccc21 (centres unmarked) [CBK283112],112.737
19,COc1ccc([C@@]23CC[C@@H](NC(=O)CNc4ccc(Cl)c(Cl)c4)C[C@@H]2N(C)CC3)cc1OC [CBK038220],77.1436
20,CC(c1ccc(S(C)(=O)=O)cc1)N(C)C(=O)COc1ccc2ccccc2c1 (centres unmarked) [CBK296738],131.163
21,CC(NC(=O)c1ncoc1-c1ccccc1Cl)c1ccccn1 (centres unmarked) [CBK282409],179.7
22,Cc1cc(C)cc(NC(=O)CSc2ncccn2)c1 [CBK287577],150.982
23,O=[N+]([O-])c1cccc(/C=N/Nc2nc(-c3ccccc3)cc(-c3ccccc3O)n2)c1 [CBK261722],100.327
24,CC(=O)N1CCc2sccc2C1c1ccc(NCc2ccc(F)c(F)c2)cc1 (centres unmarked) [CBK286452],117.808
25,C=CCc1cc(C)cc(C)c1OCCN1CCN(CC)CC1 [CBK267392G],154.904
26,O=C(Nc1ccc(S(=O)(=O)Nc2ccc(Cl)c(C(F)(F)F)c2)cc1)c1ccc(CN2CCOCC2)cc1 [CBK264777],57.6236

row,Structure (SMILES),% of control remaining [%]
1,CCC(CC)C(=O)N1c2ccccc2C(C)(c2ccccc2)CC1(C)C (centres unmarked) [CBK073862],89.6513
2,c1cnc(NCc2cc3n(n2)CCN(CC2CCCCC2)C3)cn1 [CBK307592],134.154
3,O=C(c1cccnc1)N1CCCC(n2cnc3cc(F)ccc32)C1 (centres unmarked) [CBK284474],142.172
4,O=C1/C(=C/c2ccc(OCc3cccc([N+](=O)[O-])c3)cc2)SC(=S)N1CCc1ccccc1 [CBK264641],123.142
5,CN(C)C(=O)c1ccc(-c2ccc(OC3CCN(C(=O)CCC(=O)N4CCCC4)CC3)nc2)cc1 [CBK155051],88.6295
6,CNC(=O)c1sc2ccccc2c1C1CCN(Cc2cnc(-c3ccc(C)cc3)nc2)C1 (centres unmarked) [CBK285883],83.6884
7,O=C(OCc1nc2ccccc2[nH]1)N1CCOCC1 [CBK200146],89.5519
8,O=C(Nc1ccc(-c2noc(COc3ccc(Br)cc3)n2)cc1)c1ccc2c(c1)OCO2 [CBK266692],146.055
9,CC(C)(C)c1nn(CC2CCCCC2)c(=N)s1 [CBK075042],59.8572
10,CCN1CCN(C(=O)c2cccc(N(C)C)c2)C(Cc2ccc(-c3ccncc3)cc2)C1=O (centres unmarked) [CBK285813],124.401
11,CCC(Oc1nc2ccccc2nc1-c1ccccc1NC(C)=O)C(=O)c1ccccc1 (centres unmarked) [CBK267315],95.3441
12,COCCNc1nc(-c2cccc(C(N)=O)c2)cnc1N [CBK063901],158.985
13,Cc1cc(COc2nccnc2N2CCN(Cc3ccc([N+](=O)[O-])cc3)CC2)no1 [CBK084189],103.599
14,O=C(CN1CCN(Cc2ccc3c(c2)OCO3)CC1)Nc1ccc(Cl)cc1C(=O)c1ccccc1 [CBK264241],90.3637
15,COc1ccc(Cl)cc1NC(=S)NCCn1cc(Cl)cn1 [CBK267063],179.802
16,Cn1c(NC(=O)c2ccccc2[N+](=O)[O-])cc(=O)n(C)c1=O [CBK294417],149.901
17,COc1cc(C(=O)Nc2cc(-c3nc4ncccc4o3)ccc2C)cc(OC)c1OC [CBK101133],100
18,Fc1ccccc1CN(CCCn1ccnc1)Cc1ccncc1 [CBK282981],152.369
19,COc1ccc(C2=C3NN=C(N)N3NN2)cc1 [CBK093662],115.368
20,Oc1ccc2ccccc2c1/C=N/Nc1nnn[nH]1 [CBK262028],100
21,N/C(=N/OCC(=O)Nc1cccc2ccccc12)c1nonc1N [CBK265234],125.934
22,Cn1c2c(c(=O)n(C)c1=O)[C@H]1[C@H](O)[C@H](O)C[C@H]1C1(CCC1)N2 [CBK303250],146.094
23,O=C(Oc1ccc2c(c1)C1C=CCC1C(C(=O)O)N2)c1ccc(Cl)cc1Cl (centres unmarked) [CBK265285],114.843
24,CC(=O)Nc1ccc(C(=O)N2CCCC(c3cccc(Cc4ccc(Cl)cc4)n3)C2)cc1 (centres unmarked) [CBK286134],99.854
25,CC(C)(C)N1C(=O)c2ccc(C(=O)NNC(=O)C(C#N)C(=O)c3ccc4c(c3)C(=O)N(C(C)(C)C)C4=O)cc2C1=O (centres unmarked) [CBK268652],144.029

# In a second layout: entries from further up.
row | Structure (SMILES) | % of control remaining [%]
9 | CC(C)(C)c1nn(CC2CCCCC2)c(=N)s1 [CBK075042] | 59.8572
10 | CCN1CCN(C(=O)c2cccc(N(C)C)c2)C(Cc2ccc(-c3ccncc3)cc2)C1=O (centres unmarked) [CBK285813] | 124.401
11 | CCC(Oc1nc2ccccc2nc1-c1ccccc1NC(C)=O)C(=O)c1ccccc1 (centres unmarked) [CBK267315] | 95.3441

# A few values from above.
# Entry of `CN(C)C(=O)c1ccc(-c2ccc(OC3CCN(C(=O)CCC(=O)N4CCCC4)CC3)nc2)cc1` [CBK155051] under % of control remaining [%]: 88.6295
# Entry of `O=C(OCc1nc2ccccc2[nH]1)N1CCOCC1` [CBK200146] under % of control remaining [%]: 89.5519
